According to patent US9198422B2, “Pesticidal pyrazole compounds” (BASF SE, priority 2011, dated 2015):
Some results were stated once for a whole list of compounds, not compound by compound.

Experiments:
Assay type in all cases: in vivo
Aphis craccivora = test: B.1 Cowpea aphid spray test on potted cowpea plants; conditions: 500 ppm; population reduction assessed after 24, 72 and 120 hours
Aphis gossypii = test: B.2 Cotton aphid, mixed life stages, spray test on cotton plants; conditions: 10 ppm; after 5 days
Bemisia argentifolii = test: B.3 Silverleaf whitefly, adult, spray test on cotton plants; conditions: 10 ppm; 3 days after treatment
Megoura viciae = test: B.4 Vetch aphid bean leaf disk microtiter test; conditions: 2500 ppm; 6 days
Myzus persicae = test: B.5 Green peach aphid spray test on bell pepper plants; conditions: 10 ppm; after 5 days
Nilaparvata lugens = test: B.7 Rice plant hopper spray test on rice seedlings; conditions: 500 ppm; after 72 hours
Nephotettix virescens = test: B.9 Rice green leafhopper spray test on rice seedlings; conditions: 500 ppm; after 72 hours
Description: B.9 Rice Green Leafhopper (Nephotettix virescens)
Rice seedlings were cleaned and washed 24 hours before spraying. The active compounds were formulated in 1:1 (vol:vol) water:aceton, and 0.1% vol/vol surfactant (EL 620) was added. Potted rice seedlings were sprayed with 5 ml test solution, air dried, placed in cages and inoculated with 10 adults. Treated rice plants were kept at 28-29° C. and relative humidity of 50-60%. Percent mortality was recorded after 72 hours.

Anthonomus grandis = test: B.6 Boll weevil insect diet microtiter test; conditions: 2500 ppm; egg and larval mortality; 5 days
Description: B.6 Boll Weevil (Anthonomus grandis)
The compounds were formulated in 3:1 (vol:vol) water:DMSO.
For evaluating control of boll weevil (Anthonomus grandis) the test unit consisted of 24-well-microtiter plates containing an insect diet and 20-30 A. grandis eggs. Different concentrations of formulated compounds were sprayed onto the insect diet at 20 μl, using a custom built micro atomizer, at two replications. After application, the microtiter plates were incubated at 23±1° C. and 50±5% relative humidity for 5 days. Egg and larval mortality was then visually assessed.

Measured: mortality in comparison with untreated controls

CCC(C)n1ncc(C(=O)N(CC)c2ccnnc2)c1C (stereo not shown) [I-10]
not listed: Anthonomus grandis
at least 75%: all other assays above

COCN(C(=O)c1cnn(C2(C(F)(F)F)CCCCC2)c1C)c1ccnnc1 [I-113]
not listed: Aphis gossypii | Myzus persicae
at least 75%: all other assays above
